Source: publication PMC11729909
These are yes or no findings as the source states them, for the method shown. In cells and extracts the contact can be indirect. Some binding calls cover weakened binding; strength is not graded here. For some assays here: Where a sequence is shown, tags or fusion partners need not be part of it.

The chains behind the UniProt entries cited, without tags or fusion partners.
UniProt P27694: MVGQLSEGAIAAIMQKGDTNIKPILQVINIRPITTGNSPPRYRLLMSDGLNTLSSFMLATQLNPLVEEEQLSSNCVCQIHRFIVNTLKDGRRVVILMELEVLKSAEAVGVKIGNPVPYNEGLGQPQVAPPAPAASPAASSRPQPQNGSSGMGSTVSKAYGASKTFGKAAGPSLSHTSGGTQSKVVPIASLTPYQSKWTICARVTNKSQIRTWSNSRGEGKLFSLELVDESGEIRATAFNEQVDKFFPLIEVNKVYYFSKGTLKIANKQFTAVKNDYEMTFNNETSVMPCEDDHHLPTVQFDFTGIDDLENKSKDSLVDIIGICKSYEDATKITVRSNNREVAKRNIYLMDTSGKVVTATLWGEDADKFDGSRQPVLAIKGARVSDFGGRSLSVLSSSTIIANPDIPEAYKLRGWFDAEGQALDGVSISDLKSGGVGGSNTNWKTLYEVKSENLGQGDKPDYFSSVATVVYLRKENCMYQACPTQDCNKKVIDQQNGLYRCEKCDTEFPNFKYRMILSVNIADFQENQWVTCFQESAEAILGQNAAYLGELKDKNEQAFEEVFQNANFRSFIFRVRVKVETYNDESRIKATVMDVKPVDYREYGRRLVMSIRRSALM
UniProt Q13535: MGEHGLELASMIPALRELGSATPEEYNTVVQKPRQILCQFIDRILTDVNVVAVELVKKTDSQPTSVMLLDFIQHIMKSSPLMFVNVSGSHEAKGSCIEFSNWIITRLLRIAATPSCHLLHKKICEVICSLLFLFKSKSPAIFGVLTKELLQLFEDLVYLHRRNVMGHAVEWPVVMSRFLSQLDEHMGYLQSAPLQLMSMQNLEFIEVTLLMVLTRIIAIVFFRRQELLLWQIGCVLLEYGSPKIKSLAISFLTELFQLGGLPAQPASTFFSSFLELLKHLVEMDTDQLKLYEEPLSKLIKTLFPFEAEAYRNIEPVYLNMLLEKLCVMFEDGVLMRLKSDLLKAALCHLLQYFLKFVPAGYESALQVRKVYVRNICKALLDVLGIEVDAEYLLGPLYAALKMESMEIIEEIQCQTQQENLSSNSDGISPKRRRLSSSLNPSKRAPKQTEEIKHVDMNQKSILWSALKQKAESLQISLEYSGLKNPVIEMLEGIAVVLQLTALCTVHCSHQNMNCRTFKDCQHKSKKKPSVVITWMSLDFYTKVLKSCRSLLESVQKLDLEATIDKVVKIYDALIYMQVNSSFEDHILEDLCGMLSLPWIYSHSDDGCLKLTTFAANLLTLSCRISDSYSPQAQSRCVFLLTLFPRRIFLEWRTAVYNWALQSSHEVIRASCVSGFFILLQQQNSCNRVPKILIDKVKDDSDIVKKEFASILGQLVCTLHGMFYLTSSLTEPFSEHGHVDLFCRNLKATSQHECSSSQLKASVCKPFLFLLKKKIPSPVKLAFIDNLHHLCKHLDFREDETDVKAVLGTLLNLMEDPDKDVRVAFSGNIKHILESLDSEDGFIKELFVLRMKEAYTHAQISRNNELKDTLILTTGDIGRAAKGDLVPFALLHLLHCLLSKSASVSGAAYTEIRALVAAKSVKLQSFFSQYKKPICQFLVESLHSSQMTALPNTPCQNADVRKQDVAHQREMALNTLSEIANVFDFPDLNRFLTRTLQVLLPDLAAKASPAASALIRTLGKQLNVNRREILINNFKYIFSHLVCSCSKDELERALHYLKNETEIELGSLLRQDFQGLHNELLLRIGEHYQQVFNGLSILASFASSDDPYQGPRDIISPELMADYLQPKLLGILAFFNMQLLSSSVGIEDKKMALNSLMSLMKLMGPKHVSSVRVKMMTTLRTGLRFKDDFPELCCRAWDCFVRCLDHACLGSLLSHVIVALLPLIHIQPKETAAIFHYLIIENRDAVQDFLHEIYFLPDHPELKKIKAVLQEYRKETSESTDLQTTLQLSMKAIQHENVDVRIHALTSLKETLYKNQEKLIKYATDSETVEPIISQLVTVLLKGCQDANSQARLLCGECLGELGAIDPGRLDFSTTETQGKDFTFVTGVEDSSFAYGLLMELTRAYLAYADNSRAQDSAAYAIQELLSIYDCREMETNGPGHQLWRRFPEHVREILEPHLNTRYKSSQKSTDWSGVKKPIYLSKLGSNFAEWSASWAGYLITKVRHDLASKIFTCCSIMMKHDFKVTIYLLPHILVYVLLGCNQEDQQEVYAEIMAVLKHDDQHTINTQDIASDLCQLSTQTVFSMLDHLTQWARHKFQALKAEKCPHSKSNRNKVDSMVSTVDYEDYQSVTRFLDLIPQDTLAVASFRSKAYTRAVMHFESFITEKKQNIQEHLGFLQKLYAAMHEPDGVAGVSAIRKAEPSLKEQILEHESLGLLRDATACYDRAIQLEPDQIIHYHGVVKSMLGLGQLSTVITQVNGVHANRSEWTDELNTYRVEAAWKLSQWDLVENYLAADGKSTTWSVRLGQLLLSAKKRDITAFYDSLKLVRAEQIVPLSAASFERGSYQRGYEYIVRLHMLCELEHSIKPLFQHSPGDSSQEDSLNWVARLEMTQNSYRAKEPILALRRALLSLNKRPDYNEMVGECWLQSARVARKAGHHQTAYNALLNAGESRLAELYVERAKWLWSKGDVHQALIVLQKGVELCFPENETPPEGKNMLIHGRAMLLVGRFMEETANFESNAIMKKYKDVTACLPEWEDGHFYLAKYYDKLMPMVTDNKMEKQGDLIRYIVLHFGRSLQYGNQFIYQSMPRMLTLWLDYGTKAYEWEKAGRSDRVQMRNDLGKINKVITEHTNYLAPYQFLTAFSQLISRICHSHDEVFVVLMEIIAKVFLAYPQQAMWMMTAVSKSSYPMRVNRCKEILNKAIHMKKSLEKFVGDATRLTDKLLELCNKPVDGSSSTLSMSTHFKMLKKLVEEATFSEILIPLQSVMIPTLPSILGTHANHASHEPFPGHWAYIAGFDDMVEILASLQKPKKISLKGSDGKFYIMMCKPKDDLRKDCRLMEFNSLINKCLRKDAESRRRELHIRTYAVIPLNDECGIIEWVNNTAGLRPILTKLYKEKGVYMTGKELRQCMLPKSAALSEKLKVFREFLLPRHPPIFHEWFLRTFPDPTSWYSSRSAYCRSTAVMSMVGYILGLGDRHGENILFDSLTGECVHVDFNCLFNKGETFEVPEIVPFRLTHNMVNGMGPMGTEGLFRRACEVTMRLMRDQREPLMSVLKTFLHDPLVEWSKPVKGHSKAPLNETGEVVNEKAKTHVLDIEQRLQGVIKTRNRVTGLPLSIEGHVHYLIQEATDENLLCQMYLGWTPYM

Assays:
[1] = molecular target: T1, CHK1 (endogenous) (human (endogenous in HEK293T)) (UniProt O14757); assay: co-IP; endogenous immunoprecipitation from HEK293T lysate (NETN buffer: 100 mM NaCl, 1 mM EDTA, 20 mM Tris-HCl pH 8.0, 0.5% NP-40), antibody 4 h at 4 °C, protein-A beads 1 h; cells untreated or 2 mM HU for 1 h
T1 sequence: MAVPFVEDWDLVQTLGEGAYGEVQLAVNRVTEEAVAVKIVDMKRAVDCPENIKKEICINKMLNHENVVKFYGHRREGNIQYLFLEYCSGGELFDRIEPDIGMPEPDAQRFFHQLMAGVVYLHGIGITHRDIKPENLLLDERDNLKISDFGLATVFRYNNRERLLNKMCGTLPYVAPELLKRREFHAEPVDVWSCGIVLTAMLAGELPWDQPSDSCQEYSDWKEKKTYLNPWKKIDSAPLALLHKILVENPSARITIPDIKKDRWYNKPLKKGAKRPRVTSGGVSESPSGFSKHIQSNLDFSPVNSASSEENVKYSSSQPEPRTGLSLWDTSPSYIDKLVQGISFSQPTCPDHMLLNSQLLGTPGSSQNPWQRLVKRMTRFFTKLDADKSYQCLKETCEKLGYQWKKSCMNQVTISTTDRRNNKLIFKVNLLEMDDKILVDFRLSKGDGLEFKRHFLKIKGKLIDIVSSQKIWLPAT

[2] = molecular target: RPA70 (endogenous) (human (endogenous in HEK293T)) (UniProt P27694); assay: as above
[3] = molecular target: T2, ATRIP (endogenous) (human (endogenous in HEK293T)) (UniProt Q8WXE1); assay: as above
T2 sequence: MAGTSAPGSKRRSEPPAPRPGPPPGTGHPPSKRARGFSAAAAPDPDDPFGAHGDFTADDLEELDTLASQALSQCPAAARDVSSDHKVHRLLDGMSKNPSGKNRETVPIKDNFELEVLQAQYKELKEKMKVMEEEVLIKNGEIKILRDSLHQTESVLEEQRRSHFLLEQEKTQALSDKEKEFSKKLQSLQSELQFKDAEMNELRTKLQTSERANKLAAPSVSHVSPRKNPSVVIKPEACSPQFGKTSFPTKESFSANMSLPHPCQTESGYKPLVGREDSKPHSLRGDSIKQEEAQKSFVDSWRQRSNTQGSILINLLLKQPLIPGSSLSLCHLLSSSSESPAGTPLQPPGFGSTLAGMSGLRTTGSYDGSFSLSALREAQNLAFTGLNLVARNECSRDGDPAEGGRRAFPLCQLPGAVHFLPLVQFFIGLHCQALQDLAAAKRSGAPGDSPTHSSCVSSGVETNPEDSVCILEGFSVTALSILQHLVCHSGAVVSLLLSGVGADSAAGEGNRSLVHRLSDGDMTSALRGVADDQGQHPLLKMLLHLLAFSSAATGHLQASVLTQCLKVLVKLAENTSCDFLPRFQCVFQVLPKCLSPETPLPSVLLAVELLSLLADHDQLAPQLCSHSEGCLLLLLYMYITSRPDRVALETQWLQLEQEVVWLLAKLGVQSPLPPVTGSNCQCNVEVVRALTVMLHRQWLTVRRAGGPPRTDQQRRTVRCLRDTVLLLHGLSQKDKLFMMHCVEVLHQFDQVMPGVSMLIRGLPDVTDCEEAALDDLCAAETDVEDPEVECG

[4] = molecular target: ATR (endogenous) (human (endogenous in HEK293T and H1975)) (UniProt Q13535); assay: as above
[5] = molecular target: T3, SFB-tagged OGT (human) (UniProt O15294); assay: co-IP; HEK293T transfected with the indicated plasmids, lysed in NETN buffer, Anti-FLAG Affinity Gel 4 h at 4 °C, immunoblot; in some panels 2 mM HU, Thiamet-G, OGT siRNA, ATR inhibitors (VE-822, NU6027) or CHK1 inhibitors (Rabusertib, UCN-01)
T3 sequence: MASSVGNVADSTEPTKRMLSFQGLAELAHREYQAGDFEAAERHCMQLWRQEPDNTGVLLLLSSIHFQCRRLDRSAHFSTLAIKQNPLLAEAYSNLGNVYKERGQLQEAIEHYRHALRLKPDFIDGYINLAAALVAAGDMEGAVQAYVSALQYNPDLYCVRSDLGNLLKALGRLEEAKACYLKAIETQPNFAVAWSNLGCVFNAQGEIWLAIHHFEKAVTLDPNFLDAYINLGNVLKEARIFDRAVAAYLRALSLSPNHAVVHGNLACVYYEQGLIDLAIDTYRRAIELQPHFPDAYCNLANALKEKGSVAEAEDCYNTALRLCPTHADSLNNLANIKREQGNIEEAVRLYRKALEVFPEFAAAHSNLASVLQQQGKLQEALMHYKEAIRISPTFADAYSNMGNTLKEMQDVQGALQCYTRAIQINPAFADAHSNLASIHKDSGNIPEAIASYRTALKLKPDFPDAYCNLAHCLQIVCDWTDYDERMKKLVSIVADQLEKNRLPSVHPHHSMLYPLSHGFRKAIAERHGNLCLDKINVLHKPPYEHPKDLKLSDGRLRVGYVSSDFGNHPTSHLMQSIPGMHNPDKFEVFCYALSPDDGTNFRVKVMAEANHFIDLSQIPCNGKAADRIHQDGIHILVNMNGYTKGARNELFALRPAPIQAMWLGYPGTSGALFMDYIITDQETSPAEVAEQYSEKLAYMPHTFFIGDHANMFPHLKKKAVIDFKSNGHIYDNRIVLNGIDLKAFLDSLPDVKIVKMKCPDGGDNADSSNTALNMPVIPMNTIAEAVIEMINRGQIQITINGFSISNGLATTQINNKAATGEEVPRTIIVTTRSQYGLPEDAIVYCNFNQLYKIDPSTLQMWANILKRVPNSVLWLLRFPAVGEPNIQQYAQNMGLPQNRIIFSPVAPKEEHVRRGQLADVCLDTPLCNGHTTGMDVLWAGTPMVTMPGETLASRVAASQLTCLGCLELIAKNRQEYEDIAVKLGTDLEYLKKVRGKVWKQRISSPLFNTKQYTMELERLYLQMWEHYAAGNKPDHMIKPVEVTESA

binding [1]: binds
binding [2]: binds
binding [3]: binds
binding [4]: binds
binding [5]: binds
B1: FOXP1 (endogenous) (protein, UniProt Q9H334 1-677)
chain: MMQESGTETKSNGSAIQNGSGGSNHLLECGGLREGRSNGETPAVDIGAADLAHAQQQQQQALQVARQLLLQQQQQQQVSGLKSPKRNDKQPALQVPVSVAMMTPQVITPQQMQQILQQQVLSPQQLQVLLQQQQALMLQQQQLQEFYKKQQEQLQLQLLQQQHAGKQPKEQQQVATQQLAFQQQLLQMQQLQQQHLLSLQRQGLLTIQPGQPALPLQPLAQGMIPTELQQLWKEVTSAHTAEETTGNNHSSLDLTTTCVSSSAPSKTSLIMNPHASTNGQLSVHTPKRESLSHEEHPHSHPLYGHGVCKWPGCEAVCEDFQSFLKHLNSEHALDDRSTAQCRVQMQVVQQLELQLAKDKERLQAMMTHLHVKSTEPKAAPQPLNLVSSVTLSKSASEASPQSLPHTPTTPTAPLTPVTQGPSVITTTSMHTVGPIRRRYSDKYNVPISSADIAQNQEFYKNAEVRPPFTYASLIRQAILESPEKQLTLNEIYNWFTRMFAYFRRNAATWKNAVRHNLSLHKCFVRVENVKGAVWTVDEVEFQKRRPQKISGNPSLIKNMQSSHAYCTPLNAALQASMAENSIPLYTTASMGNPTLGNLASAIREELNGAMEHTNSNESDSSPGRSPMQAVHPVHVKEEPLDPEEAEGPLSLVTTANHSPDFDHDRDYEDEPVNEDME
